Drawing on publication PMC5007978, “A chemical with proven clinical safety rescues Down-syndrome-related phenotypes in through DYRK1A inhibition” (Disease Models & Mechanisms, 2016), this text covers IC50 for one compound.

Sequences of proteins named here, by UniProt entry; tags and fusion partners are left off.
UniProt Q9Y463, whole entry: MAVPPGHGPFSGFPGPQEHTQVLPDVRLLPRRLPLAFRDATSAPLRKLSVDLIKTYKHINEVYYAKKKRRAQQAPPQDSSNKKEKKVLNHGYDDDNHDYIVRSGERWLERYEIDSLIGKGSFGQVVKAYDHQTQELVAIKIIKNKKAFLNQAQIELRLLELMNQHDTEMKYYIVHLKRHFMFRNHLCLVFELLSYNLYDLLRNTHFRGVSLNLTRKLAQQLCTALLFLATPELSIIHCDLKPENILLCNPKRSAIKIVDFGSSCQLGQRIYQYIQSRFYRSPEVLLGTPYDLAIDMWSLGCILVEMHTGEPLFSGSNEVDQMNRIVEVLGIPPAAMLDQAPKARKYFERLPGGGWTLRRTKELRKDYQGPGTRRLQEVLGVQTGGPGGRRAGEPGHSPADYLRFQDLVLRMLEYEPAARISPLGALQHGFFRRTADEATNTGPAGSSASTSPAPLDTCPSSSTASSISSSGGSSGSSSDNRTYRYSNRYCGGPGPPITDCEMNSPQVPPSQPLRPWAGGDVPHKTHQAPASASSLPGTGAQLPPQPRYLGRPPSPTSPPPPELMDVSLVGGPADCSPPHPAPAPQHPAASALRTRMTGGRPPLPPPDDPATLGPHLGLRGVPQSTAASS

This assay addresses T1, DYRK1B (Homo sapiens, UniProt Q9Y463).
T1 construct: purchased Life Technologies (Kinase Profiler service)
Kind of assay: In vitro kinase assay, recombinant human DYRK1B (Life Technologies). The class given is biochemical.

The structures appear in SMILES notation.

Usually IC50 stands for the concentration needed to halve the response being measured. As for `COc1ccc2c(c1)[nH]c1c(C)nccc12` [harmine], the IC50 was determined as 152 nM.
